# In patent US20250075278A1, “EPIGENTIC REGULATION AND CO-TARGETING APPROACHES OF PSMA IN PROSTRATE CANCER” (Fred Hutchinson Cancer Center, priority 2023, published 2025):
# For at least one compound, name, drawing or mass did not settle the structure.
# Columns and labels:
# DU145 cells = conditions: decitabine alone, 500 nM, 6 days
# LuCaP 35CR CL cells = test: PSMA cell surface expression by flow cytometry in LuCaP 35CR cell line; format: cell-based; conditions: decitabine alone, 500 nM, 6 days
# [1] = system: DU145, LAPC4, and LuCaP 35CR CL; test: PSMA protein expression in cell line models treated with epigenetic modifiers (flow cytometry and fluorescence immunocytochemistry); format: cell-based; conditions: in vitro and in vivo
# Experimental: Cell lines and in vitro experiments. […] All drugs were diluted in DMSO.
# To this end, 3 cell line models (DU145, LAPC4, and LuCaP 35CR CL) were treated with the DNMTi decitabine and pan-HDACi (panobinostat, CUDC-907, vorinostat) and applied 2 orthogonal approaches (flow cytometry and fluorescence immunocytochemistry) and 2 separate monoclonal antibodies (3E6 and LNI-17) to measure PSMA protein expression.
Structure (SMILES),PSMA protein expression (DU145 cells),PSMA protein expression (LuCaP 35CR CL cells),PSMA expression after HDACi treatment [1]
"Nc1ncn([C@H]2C[C@H](O)[C@@H](CO)O2)c(=O)n1 [Decitabine, decitabine]",increased expression,increased expression,
Cc1[nH]c2ccccc2c1CCNCc1ccc(/C=C/C(=O)NO)cc1 [panobinostat],,,significant upregulation of PSMA expression
